Results are given in words; binding and its absence hold for the method and conditions named. Binding can be weak; no strength is given. Where a sequence is shown, tags or fusion partners need not be part of it.
How the values were obtained:
[1] = target: recombinant Cathepsin S protein (UniProt P25774); test: ELISA, antibody coated on the plate, Cat S antigen 200 ng/ml, anti-his-HRP, signal relative to parental Fsn0503h = 100 %
[2] = target: recombinant Cathepsin S protein (UniProt P25774); test: BLI (Octet), on-off rate map, kon (1/Ms) against kdis (1/s), both axes logarithmic

Chains of the proteins cited; added tags and fusions are not shown. Lines headed by an entry give the natural chain unless they say otherwise; changes in a name come on top.
UniProt P25774: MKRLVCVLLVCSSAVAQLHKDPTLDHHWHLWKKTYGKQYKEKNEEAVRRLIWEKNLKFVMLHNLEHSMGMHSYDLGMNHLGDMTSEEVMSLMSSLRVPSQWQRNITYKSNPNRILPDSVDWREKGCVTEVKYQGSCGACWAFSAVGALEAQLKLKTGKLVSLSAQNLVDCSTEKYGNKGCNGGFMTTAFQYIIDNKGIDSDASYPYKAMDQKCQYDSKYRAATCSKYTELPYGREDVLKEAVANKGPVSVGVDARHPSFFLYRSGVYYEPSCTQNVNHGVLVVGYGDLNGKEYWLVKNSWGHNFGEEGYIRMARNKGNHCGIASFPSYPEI

binding [1]: binds | binding [2]: binds
B1: Fsn0503h, humanised anti-Cathepsin S antibody (Fusion Antibodies) (antibody, V domains shown)
VH: EVQLVESGGGLVKPGGSLRLSCAASGFAFSSYDMSWVRQAPGKGLEWVAYITTGGVNTYYPDTVKGRFTISRDNAKNTLYLQMSSLKSEDTAVYYCARHSYFDYWGQGTTVTVSS
VL: DVVMTQSPLSLPVTLGQPASISCRSSQSLVHSNGNTYLHWYLQKPGQSPQLLIYKVSNRFSGVPDRFSGSGSGTDFTLKISRVEAEDVGVYYCSQTTHVPPTFGQGTKLEIK

Reference: patent US20250382726A1
